These are yes or no findings as the source states them, for the method shown. Some results given as binding are weak or reduced against the parent protein; the word gives no strength.
How the values were obtained:
Test in all cases: SPOT peptide membrane, ECL
[1] = target: T1, SPOT peptide 24, …
T1 sequence (peptide): GSGKWEGGPSKNS

[2] = target: T2, SPOT peptide 21, …
T2 sequence (peptide): YQFNGSGSGKWEG

[3] = target: T3, SPOT peptide 22, …
T3 sequence (peptide): FNGSGSGKWEGGP

[4] = target: T4, SPOT peptide 23, …
T4 sequence (peptide): GSGSGKWEGGPSK

binding [1]: binds | binding [2]: binds | binding [3]: binds | binding [4]: binds
B1: mouse monoclonal anti-Eag1 antibody ImAb5 (antibody, mouse IgG2b, V domains shown)
VH: EVKLVESGGGLVQPGGSLRLSCATSGFTFTDYYMSWVRQPPGKALEWLGFIRNKATGYTTEYSASVKGRFTISRDNSQSILYLQMNTLRAEDSATYYCARDTAATWYFDVWGAGTTVTVSS
VL: DIVMSQSPSSLAVSAGEKVTMSCKSSQSLLNSRTRKNYLAWYQQKPGQSPKLLIYWASTRESGVPDRFTGSGSGTDFTLTISSVQAEDLAVYYCKQSYDLRTFGGGTKLEIKR

— patent publication US20090028851A1 (MAXPLANCK GESELLSCHAFT ZUR F RDERUNG DER WISSENSCH, published 2009)
